From the supplement of paper PMC5662767
Counter-ions that a name gives are not always drawn. Some of the results follow. Part of the spread comes from offsets between plates or batches.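 A clonal Drosophila S2 line expresses Smoothened bearing circularly permuted GFP in its cytoplasmic tail; Hh-driven phosphorylation opens an inhibitory loop, making it fluoresce. Flow cytometry measured per-cell fluorescence, normalized to Hh-stimulated untreated cells. Hits were inhibitor groups with shared pathway targets that consistently shifted fluorescence, not individual compounds.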

Tested on: Drosophila S2 cl14 SmoIP sensor cells
Experiment: normalized SmoIP GFP fluorescence (untreated unstimulated = 0%, untreated Hh-stimulated = 100%); higher = more Smo activation sensor fluorescence
Details: compound concentration: 15 uM, 24 h
[1] = stimulation: Hh conditioned medium (+Hh)
[2] = stimulation: mock conditioned medium (-Hh)

| Structure (SMILES) | normalized SmoIP GFP fluorescence [1] [%] | normalized SmoIP GFP fluorescence [2] [%] |
| --- | --- | --- |
| Nc1nc(N)c2nc(-c3cccc(O)c3)c(-c3cccc(O)c3)nc2n1 | 126 | -2.64 |
| CC(C)(C)NC(=O)[C@H]1CC[C@H]2[C@@H]3CC[C@H]4NC(=O)C=C[C@]4(C)[C@H]3CC[C@]12C [Finasteride] | 52.4 | -8.78 |
| C[C@]12CC[C@@H]3c4ccc(O)cc4C[C@@H](CCCCCCCCC[S+]([O-])CCCC(F)(F)C(F)(F)F)[C@H]3[C@@H]1CC[C@@H]2O (stereo not given in full) [Fulvestrant] | 179 | 98.3 |
| CNC(=O)c1ccc(-c2cnc3ncc(Cc4ccc5ncccc5c4)n3n2)cc1F | 144 | 14.2 |
| C#C[C@]1(OC(C)=O)CC[C@H]2[C@@H]3CCC4=C[C@@H](OC(C)=O)CC[C@@H]4[C@H]3CC[C@@]21C [ethynodiol-diacetate] | 110 | 0.815 |
| C=CC[N+]1([C@H]2C[C@H]3[C@@H]4CC[C@H]5C[C@H](O)[C@@H](N6CCOCC6)C[C@]5(C)[C@H]4CC[C@]3(C)[C@H]2OC(C)=O)CCCC1 [Rocuronium-bromide] | 123 | 4.26 |
| COC[C@H](NC(=O)c1cnc(C)s1)C(=O)N[C@@H](COC)C(=O)N[C@@H](Cc1ccccc1)C(=O)[C@@]1(C)CO1 [oprozomib-onx-0912] | 86.4 | 39.5 |
| c1ccc2c(Oc3nc(Nc4ccc(N5CCOCC5)cc4)c4ncn(C5CCCCC5)c4n3)cccc2c1 [purmorphamine] | 149 | 30.3 |
| COc1cccc(Nc2c(C(N)=O)cnc3c(C)cc(S(=O)(=O)c4cccc(C(=O)N(C)C)c4)cc23)c1 | 152 | 19.1 |
| CN1CCN(CCCN2c3ccccc3Sc3ccc(C(F)(F)F)cc32)CC1 [trifluoperazine-dihydrochloride] | 172 | 43 |
| CN(C)C(=O)C(CCN1CCC(O)(c2ccc(Cl)cc2)CC1)(c1ccccc1)c1ccccc1 [Loperamide-hydrochloride] | 177 | 63.1 |
| O=C(Nc1ccccc1)Nc1ccc(-c2ccc(C(=O)[C@@H]3CCC[C@H]3C(=O)O)cc2)cc1 | 134 | -4.35 |
| CNCCc1ccccn1 [betahistine-dihydrochloride] | 116 | -6.29 |
| O=c1cc(-c2cccc3c2Sc2ccccc2S3)oc(N2CCOCC2)c1 | 221 | 60.6 |
| NC(N)=N/N=C/c1c(Cl)cccc1Cl [guanabenz-wy-8678-acetate] | 113 | 0.247 |
| CC(C)(C)c1cc(C(C)(C)C)c(NC(=O)c2c[nH]c3ccccc3c2=O)cc1O | 122 | 55 |
| O=C(O)CCCN1CCC(O[C@@H](c2ccc(Cl)cc2)c2ccccn2)CC1 [bepotastine-besilate] | 117 | -2.93 |
| OC[C@@H](O)CN1CCN(c2ccccc2)CC1 [levodropropizine] | 112 | -1.74 |
| O=C(Nc1ccncc1)c1cc([N+](=O)[O-])ccc1Cl | 129 | 4.39 |
| Cc1cc(C#N)cc(C)c1Oc1nc(Nc2ccc(C#N)cc2)nc(N)c1Br [etravirine-tmc125] | 154 | 60 |
| COc1ccc(-c2cc3c(C)nc(N)nc3n([C@H]3CC[C@H](OCCO)CC3)c2=O)cn1 | 47.8 | -17.7 |
| COc1ccc(-c2ccc3c(N4CCOCC4)nc(N4C[C@@H](C)O[C@@H](C)C4)nc3n2)cc1CO | 85.5 | 24.9 |
| c1ccc2c(CC3=NCCN3)cccc2c1 [Naphazoline-hydrochloride-Naphcon] | 128 | -11 |
| O=C(O)COCCN1CCN(C(c2ccccc2)c2ccc(Cl)cc2)CC1 (stereo not given) [Cetirizine-di-hcl] | 131 | 5.12 |

Single entries from the entries so far.
Entry of `C=CC[N+]1([C@H]2C[C@H]3[C@@H]4CC[C@H]5C[C@H](O)[C@@H](N6CCOCC6)C[C@]5(C)[C@H]4CC[C@]3(C)[C@H]2OC(C)=O)CCCC1` [Rocuronium-bromide] under normalized SmoIP GFP fluorescence [2] [%]: 4.26
Entry of `CNCCc1ccccn1` [betahistine-dihydrochloride] under normalized SmoIP GFP fluorescence [2] [%]: -6.29
Entry of `C#C[C@]1(OC(C)=O)CC[C@H]2[C@@H]3CCC4=C[C@@H](OC(C)=O)CC[C@@H]4[C@H]3CC[C@@]21C` [ethynodiol-diacetate] under normalized SmoIP GFP fluorescence [1] [%]: 110

Later entries

| Structure (SMILES) | normalized SmoIP GFP fluorescence [1] [%] | normalized SmoIP GFP fluorescence [2] [%] |
| --- | --- | --- |
| C=CC(=O)Nc1cccc(Oc2nc(Nc3ccc(N4CCN(C)CC4)cc3OC)ncc2Cl)c1 | 147 | 40.9 |
| CNC(=O)c1cccc(-c2ccc3c(N4CCOC[C@@H]4C)nc(N4CCOC[C@@H]4C)nc3n2)c1 | 171 | 39.5 |
| CCC(=O)Nc1cccc(Oc2nc(Nc3ccc(N4CCN(C)CC4)cc3OC)ncc2Cl)c1 | 113 | 5.59 |
| Cc1ccc(Nc2nccc(N(C)c3ccc4c(C)n(C)nc4c3)n2)cc1S(N)(=O)=O [pazopanib] | 108 | 35.9 |
| Cc1c(-c2ccccc2)oc2c(C(=O)OCCN3CCCCC3)cccc2c1=O [flavoxate-hcl] | 124 | 6.67 |
| CC(C)C[C@@H](C(=O)N[C@H](C(=O)OC1CCCC1)c1ccccc1)[C@H](O)C(=O)NO [CHR-2797(Tosedostat)] | 142 | 13.3 |
| C[C@]12CC[C@@H]3c4ccc(O)cc4CC[C@H]3[C@@H]1CCC2=O [Estrone] | 135 | -0.0496 |
| Cc1cc2c(F)c(Oc3ncnn4cc(OC[C@@H](C)O)c(C)c34)ccc2[nH]1 [Brivanib] | 136 | 39.5 |
| COc1cc2ncnc(Nc3ccc(Cl)cc3F)c2cc1OC | 141 | 41.8 |
| CO[C@H]1C[C@@H]2CC[C@@H](C)[C@@](O)(O2)C(=O)C(=O)N2CCCC[C@H]2C(=O)O[C@H]([C@H](C)C[C@@H]2CC[C@@H](OC(=O)C(C)(CO)CO)[C@H](OC)C2)CC(=O)[C@H](C)/C=C(\C)[C@@H](O)[C@@H](OC)C(=O)[C@H](C)C[C@H](C)/C=C/C=C/C=C/1C [Temsirolimus] | 94.3 | 72.7 |
| NC(=O)c1ccc(I)c([N+](=O)[O-])c1 | 150 | 35.5 |
| CN1CCC(=C2c3ccccc3CCc3cccnc32)CC1 [azatadine-dimaleate] | 134 | 19.2 |
| Cn1cc(-c2ccc3nnc(C(F)(F)c4ccc5ncccc5c4)n3n2)cn1 | 134 | 9.86 |
| CCCNC(=O)Nc1ccc(Oc2ncnc3cc(OC)c(OC)cc23)cc1Cl | 147 | 8.14 |
| C[C@H](NC(=O)Cc1cc(F)cc(F)c1)C(=O)N[C@H](C(=O)OC(C)(C)C)c1ccccc1 | 170 | -6.16 |
| CC(=O)Oc1ccccc1C(=O)O [aspirin-acetylsalicylic-acid] | 106 | -7.76 |
| COc1ccc([C@@H]2CC(=O)c3c(O)cc(O)cc3O2)cc1O [Hesperetin] | 116 | -15.8 |
| COc1cccc(C=NCCN=Cc2cccc(OC)c2[O-])c1[O-].[Cl-].[Mn+3] | 113 | -0.662 |
| Clc1ccc2nsnc2c1NC1=NCCN1 [Tizanidine-hydrochloride] | 137 | 7.06 |
| O=C(NCc1ccccc1)c1csc(Nc2ccncn2)n1 [Thiazovivin] | 146 | 32.9 |
| Cc1cc(C(C)(C)C)c(O)c(C)c1CC1=NCCN1 [Oxymetazoline-hydrochloride] | 114 | 0.588 |
| O=C(NC[C@H]1CN(c2ccc(N3CCOCC3=O)cc2)C(=O)O1)c1ccc(Cl)s1 [Rivaroxaban] | 112 | 3.66 |
| O=C1c2ccccc2C(=O)c2c1ccc(O)c2O [Alizarin] | 156 | 21.6 |
| COCCc1ccc(OCC(O)CNC(C)C)cc1 (stereo not given) [metoprolol-tartrate] | 131 | -20.3 |

| Structure (SMILES) | normalized SmoIP GFP fluorescence [1] [%] | normalized SmoIP GFP fluorescence [2] [%] |
| --- | --- | --- |
| NC(=O)c1cnc(N[C@@H]2CCCC[C@@H]2N)nc1Nc1cccc(-n2nccn2)c1 | 253 | 51.5 |
| CC1(C)CCC2=C(O1)c1ccccc1C(=O)C2=O [beta-lapachone] | 239 | 63.3 |
| COc1cc(OC)c(NC(=O)Nc2cc(C)on2)cc1Cl | 149 | -6.16 |
| COc1cc2ncnc(Sc3nnc(C)s3)c2cc1OC [sklb1002] | 163 | 18.4 |
| COc1cc(Nc2ncc(F)c(Nc3ccc4c(n3)NC(=O)C(C)(C)O4)n2)cc(OC)c1OC [R406(free-base)] | 124 | 14.5 |
| CC(C)(F)C[C@H](N[C@@H](c1ccc(-c2ccc(S(C)(=O)=O)cc2)cc1)C(F)(F)F)C(=O)NC1(C#N)CC1 [Odanacatib-(MK0822)] | 151 | 18.3 |
| CC(C)c1cc(C(C)C)c(CC(=O)NS(=O)(=O)Oc2c(C(C)C)cccc2C(C)C)c(C(C)C)c1 [Avasimibe(CI-1011)] | 105 | 47.2 |
| COc1ccc(CC(C)NCC(O)c2ccc(O)c(NC=O)c2)cc1 (stereo not given) [formoterol-hemifumarate] | 132 | -14.1 |
| C#Cc1cccc(Nc2ncnc3cc(OC)c(OCCCCCCC(=O)NO)cc23)c1 | 232 | 74.7 |
| COc1ccccc1N1CCN(CCN2C(=O)CC3(CCCC3)CC2=O)CC1 | 130 | -14.5 |
| CCNC(=O)c1[nH]nc(-c2cc(Cl)c(O)cc2O)c1-c1ccc(OC)cc1 | 252 | 69.4 |
| Cc1c(Cl)cccc1Nc1ccccc1C(=O)O [tolfenamic-acid] | 109 | -7.78 |
| OC[C@H]1O[C@@H](c2ccc(Cl)c(Cc3ccc(O[C@H]4CCOC4)cc3)c2)[C@H](O)[C@@H](O)[C@@H]1O | 140 | -11.4 |
| CC(C)NCC(O)c1ccc(O)c(O)c1 (stereo not given) [Isoprenaline-hydrochloride] | 134 | -12.6 |
| C=CCc1ccc(O)c(-c2ccc(O)c(CC=C)c2)c1 [Honokiol] | 132 | 6.1 |
| Cc1ccc([C@@H]2O[C@H](CO)[C@@H](O)[C@H](O)[C@H]2O)cc1Cc1ccc(-c2ccc(F)cc2)s1 [canagliflozin] | 109 | -14.5 |
| CCc1c(O)cc(O)c(C(=O)c2ccc(OCCN3CCOCC3)c(OC)c2)c1CC(=O)N(CCOC)CCOC | 203 | 13.8 |
| CCCCOc1ccc(CC(=O)NO)cc1 [bufexamac] | 116 | -3.16 |
| O=c1ncccn1[C@@H]1O[C@H](CO)[C@@H](O)[C@H]1O [zebularine] | 125 | -0.775 |
| O=C1c2ccc(Nc3ccc(F)cc3F)cc2CCc2ccc(OC[C@H](O)CO)cc21 [skepinone-l] | 100 | -0.0369 |
| COc1ccc(Cn2ccc3ccc(C(=O)NO)cc32)cc1 | 134 | 5.2 |
| CC1(C)CCC(c2ccc(Cl)cc2)=C(CN2CCN(c3ccc(C(=O)NS(=O)(=O)c4ccc(N[C@H](CCN5CCOCC5)CSc5ccccc5)c(S(=O)(=O)C(F)(F)F)c4)cc3)CC2)C1 | 101 | 1.89 |
